The target of the assay is Beclin-1 (BECN1) (human (endogenous in SW620 and DLD1)) (UniProt Q14457). The assay can be described thus: co-IP; endogenous proteins in lysates of SW620 and DLD1 cells; BECN1 antibody (IgG as control) on protein A/G magnetic beads, lysate incubated at 4 °C overnight, beads washed thrice, Western blot; cells untreated (Control) or treated with 80 nM CS-6.

Protein sequences, listed by entry. Tags and fused reporters are not part of them.
UniProt Q14457: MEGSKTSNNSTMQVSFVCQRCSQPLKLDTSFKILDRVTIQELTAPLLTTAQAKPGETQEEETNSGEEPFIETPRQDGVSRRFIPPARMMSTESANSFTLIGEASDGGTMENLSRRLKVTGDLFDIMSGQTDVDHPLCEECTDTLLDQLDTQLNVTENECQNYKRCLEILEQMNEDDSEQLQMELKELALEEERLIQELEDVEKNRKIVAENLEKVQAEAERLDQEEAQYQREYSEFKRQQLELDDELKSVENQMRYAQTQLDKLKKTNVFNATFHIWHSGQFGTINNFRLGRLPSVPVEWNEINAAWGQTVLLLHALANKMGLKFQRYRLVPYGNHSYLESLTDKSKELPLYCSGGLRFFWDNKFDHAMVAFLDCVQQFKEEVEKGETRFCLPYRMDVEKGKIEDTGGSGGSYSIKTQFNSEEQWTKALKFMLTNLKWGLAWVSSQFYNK
UniProt P10415: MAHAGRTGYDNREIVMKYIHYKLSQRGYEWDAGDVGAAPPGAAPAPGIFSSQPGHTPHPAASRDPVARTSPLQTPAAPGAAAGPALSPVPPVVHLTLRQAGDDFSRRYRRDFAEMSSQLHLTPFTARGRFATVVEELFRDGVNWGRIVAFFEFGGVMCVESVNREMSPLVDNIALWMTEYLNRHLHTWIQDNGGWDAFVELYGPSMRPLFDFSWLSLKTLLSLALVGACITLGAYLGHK

These are yes or no findings as the source states them, for the method shown. In cells and extracts the contact can be indirect. Some results given as binding are weak or reduced against the parent protein; the word gives no strength.

This note sets out measurements from paper PMC12098580.

Consider “B-cell lymphoma-2 (Bcl2) (from UniProt P10415 1-239)”, for which the binding entry was “binds”.
